In PubChem BioAssay AID662 (National Center for Advancing Translational Sciences (NCATS), 2007):
This is one part of the list. Further columns of the screen follow, without active or inactive calls. Most of these compounds were active or inconclusive in the main read-out, so they are no random draw. The note in brackets gives the kind of curve behind each potency; many fits are weak.

Experiment: Cell signaling CRE-BLA (Fsk stim)
Settings: CHO CRE-bla reporter (cAMP response element driving beta-lactamase), forskolin EC10, beta-lactamase ratio; measured here: 460 nm blue channel
How it was run: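 CRE-bla CHO cells stimulated with EC10 NKH 477 (water-soluble forskolin) and compound titrations, 3 h at 37C; beta-lactamase read with CCF4 after 2 h at room temperature. Activity from 460/530 nm emission ratio, AC50 values for positive or negative modulation.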

With COc1ccc(C(=O)N2CCC(n3c(C)nc4cc(F)ccc43)CC2)cc1OC as the molecule, how does the AC50 read?
The AC50 was 12.6 µM [rising, single point].

For CCOc1ccc(C2C(C#N)=C(N)SC(N)=C2C#N)c(OCC)c1, which AC50 is on record?
The AC50 was 12.6 µM [rising, single point].

For CCOc1ccc(OCC)c(NC(=O)CN2CCN(c3cc(C)ccc3C)CC2)c1, which AC50 is on record?
Its AC50 is 0.398 µM [falling, single point].

Which AC50 does the source give for CCCC/C=C/C(NC(=O)C(C)(C)C)c1ccccc1 (configuration not stated) here?
The AC50 was 25.1 µM [rising, single point].

For COc1cc(/C=C/C(=O)CC(=O)/C=C/c2ccc(O)c(OC)c2)ccc1O, which AC50 is on record?
Its AC50 is 25.1 µM [rising, partial curve].

Which AC50 does the source give for Cc1cccc(CNc2cc(-c3cccc(C#N)c3)ncn2)c1 here?
The AC50 was 3.16 µM [rising, full curve, poor fit].

Which AC50 does the source give for CCCCS(=O)(=O)NC1=NCN(CC)CN1 here?
Its AC50 is 0.00316 µM [rising, full curve, poor fit].

Which AC50 does the source give for COc1cc2c(cc1OC)CN(C(=O)CSc1nc(N)c(C#N)cc1C#N)CC2 here?
The AC50 was 7.94 µM [rising, partial curve].

For CC(C#N)Sc1nc2ccccc2c(=O)n1-c1ccccc1 (configuration not stated), which AC50 is on record?
Its AC50 is 12.6 µM [rising, partial curve].

With COc1ccc(CNc2ccnc(-c3cccc(NS(C)(=O)=O)c3)n2)c(OC)c1 as the molecule, how does the AC50 read?
The AC50 was 10 µM [rising, partial curve].

Which AC50 does the source give for CC1CCN(S(=O)(=O)c2cc(Cl)ccc2Br)CC1 here?
The AC50 was 5.01 µM [falling, partial curve, poor fit].

With CN(Cc1ccccc1)C(=O)c1cc(-c2ccc(Br)cc2)on1 as the molecule, how does the AC50 read?
Its AC50 is 10 µM [rising, partial curve].

With COc1cccc(Nc2ncc3nc(-c4ccc(Cl)cc4)c(=O)n(CCC#N)c3n2)c1 as the molecule, how does the AC50 read?
Its AC50 is 2.51 µM [rising, full curve].

With CCOC(=O)CNc1nnc(SCC(=O)OCC)[nH]c1=O as the molecule, how does the AC50 read?
Its AC50 is 7.94 µM [falling, partial curve].

Which AC50 does the source give for Cc1cc(NC(=O)CNC(=O)C2CCCCC2)no1 here?
The AC50 was 0.631 µM [rising, partial curve].

Which AC50 does the source give for COc1cc(SC)ccc1C(=O)NCCCOC(C)C here?
Its AC50 is 3.16 µM [falling, single point].

With CCOC(=O)CN1C(=O)C(C)(C)Oc2ccc(C(=O)NC(C)(C)CC)cc21 as the molecule, how does the AC50 read?
Its AC50 is 3.16 µM [rising, single point].

For COc1cccc(-n2cc3c(c2-c2ccccc2)c(=O)n(C)c(=O)n3C)c1, which AC50 is on record?
The AC50 was 10 µM [rising, single point].

Which AC50 does the source give for CCOC(=O)C1=C(C)NC(C)=C(C(=O)OCC)C1c1cc2ccc(C)cc2[nH]c1=O here?
Its AC50 is 25.1 µM [rising, single point].

Which AC50 does the source give for N#Cc1nc(Cc2ccccc2)oc1NCc1ccccc1Cl here?
Its AC50 is 10 µM [falling, partial curve].

With COc1cccc(Cn2c(=O)c(CCc3ccccc3)nc3cnc(N4CCN(C)CC4)nc32)c1 as the molecule, how does the AC50 read?
The AC50 was 12.6 µM [rising, partial curve].

Which AC50 does the source give for N#Cc1cccc(-c2ccc3ncnc(NCCN4CCOCC4)c3c2)c1 here?
The AC50 was 12.6 µM [rising, partial curve].

With Cn1cc(-c2nc3cncnc3n(Cc3ccc(F)cc3)c2=O)c2ccccc21 as the molecule, how does the AC50 read?
The AC50 was 25.1 µM [rising, single point].

Which AC50 does the source give for Cn1c(=O)[nH]c(=O)c2c1nc(N1CCCCC1)n2CCCSc1nc2ccccc2s1 here?
The AC50 was 3.98 µM [rising, partial curve].

For Cn1ccnc1C(=O)c1cc(=O)c2ccccc2o1, which AC50 is on record?
Its AC50 is 1.58 µM [falling, partial curve].

Which AC50 does the source give for CCCC(C)C(=O)Nc1cccc(NC(C)=O)c1 (configuration not stated) here?
The AC50 was 1 µM [rising, single point].

Which AC50 does the source give for N#Cc1ccccc1Cn1c(=O)n(-c2ccc(CC(=O)NCc3ccco3)cc2)c(=O)c2sccc21 here?
The AC50 was 25.1 µM [rising, single point].

For CC(C)C[C@@H](CC(=O)N[C@@H](CCCN)CC(=O)N[C@@H]1CCCC[C@H]1C(=O)N[C@H](CC(=O)N[C@@H](CCC(=O)O)CC(=O)O)Cc1ccccc1)NC(=O)[C@@H]1CCCC[C@H]1N, which AC50 is on record?
Its AC50 is 7.94 µM [falling, full curve, poor fit].

For COC(=O)c1ccccc1CCC(C)=O, which AC50 is on record?
Its AC50 is 0.251 µM [falling, partial curve, poor fit].

For Cc1ncoc1C(=O)Nc1ccccc1C(N)=O, which AC50 is on record?
Its AC50 is 5.01 µM [falling, single point].

For O=C(CSc1nnc(-c2cc3ccccc3cc2O)n1Cc1ccco1)c1ccc(F)cc1, which AC50 is on record?
The AC50 was 10 µM [falling, partial curve].

For Cc1nnc(NC(=O)Cc2ccc(OCc3c(C)noc3C)cc2)s1, which AC50 is on record?
The AC50 was 12.6 µM [falling, single point].

For CCN(CC)c1ccc2cc(NC(=O)CCC(=O)O)c(=O)oc2c1, which AC50 is on record?
The AC50 was 10 µM [rising, partial curve].

With CN1C(=O)c2ccc(C(=O)NCc3ccccc3)cc2C1=O as the molecule, how does the AC50 read?
Its AC50 is 25.1 µM [rising, single point].

Which AC50 does the source give for CC1CCCN(C(=O)C2c3ccccc3C(=O)N3CCc4ccccc4C23)C1 (configuration not stated) here?
The AC50 was 0.0158 µM [falling, full curve, poor fit].

Which AC50 does the source give for CS(=O)(=O)N(Cc1ccco1)CC(O)Cn1c2ccccc2c2ccccc21 (configuration not stated) here?
Its AC50 is 25.1 µM [falling, single point].

For COC(=O)[C@@H]1C[C@@]1(C)[C@@H](NC(=O)OCc1ccccc1)c1ccccc1, which AC50 is on record?
Its AC50 is 12.6 µM [rising, partial curve, poor fit].

For COc1ccc(C2=NO[C@@H]3C(=O)N(C4CCCCC4)C(=O)[C@H]23)cc1OC, which AC50 is on record?
The AC50 was 1.58 µM [falling, partial curve].

With Cc1nc(SCC(=O)Nc2cc(C)on2)c2c3c(sc2n1)CCCC3 as the molecule, how does the AC50 read?
The AC50 was 3.16 µM [rising, partial curve].

With COc1ccc2[nH]c3c(c2c1)CN(C)CC3 as the molecule, how does the AC50 read?
The AC50 was 5.01 µM [falling, full curve, poor fit].

For CCOC(=O)c1cn(CC)c2ccc(Br)cc2c1=O, which AC50 is on record?
The AC50 was 12.6 µM [rising, single point].

With COc1cccc(C2CC(=O)N3CN(c4cccc(Cl)c4C)CSC3=C2C#N)c1OC (configuration not stated) as the molecule, how does the AC50 read?
The AC50 was 6.31 µM [rising, partial curve].

For CC1CCCN(c2oc(-c3cccc4ccccc34)nc2C#N)C1 (configuration not stated), which AC50 is on record?
The AC50 was 3.16 µM [rising, partial curve].

With COc1ccccc1-c1nc(N(C)C)c2ccccc2n1 as the molecule, how does the AC50 read?
The AC50 was 5.01 µM [rising, full curve].

For COc1cc(OC)cc(C(=O)N2CCN(Cc3cccc(F)c3)CC2)c1, which AC50 is on record?
Its AC50 is 3.16 µM [falling, single point].

For O=C(Nc1ccc2c(c1)OCCO2)C1CCCN(S(=O)(=O)c2cccs2)C1 (configuration not stated), which AC50 is on record?
The AC50 was 0.158 µM [falling, full curve, poor fit].

Which AC50 does the source give for CCOC(=O)C1CCN(c2nc3cc(OC)ccc3cc2C#N)CC1 here?
The AC50 was 12.6 µM [rising, single point].

For Cc1cccc(C(=O)Nc2ncc(CN3CCOCC3)s2)c1, which AC50 is on record?
Its AC50 is 0.00316 µM [falling, full curve, poor fit].

With CCOc1ccc(C(=O)Nc2c3c(nn2C(C)(C)C)CSC3)cc1OCC as the molecule, how does the AC50 read?
The AC50 was 12.6 µM [rising, partial curve].

Which AC50 does the source give for CCc1ccccc1N(CC)C(=O)CCc1nc(-c2ccc(C)cc2)no1 here?
The AC50 was 3.16 µM [rising, single point].

For CCOc1ccc(NC(=O)CN2CCN(CC(=O)Nc3cc(OC)cc(OC)c3)CC2)cc1, which AC50 is on record?
The AC50 was 1 µM [falling, full curve, poor fit].

Which AC50 does the source give for COc1ccc(CC(NC(C)=O)C(=O)NC2CCN(c3c4c(nc5ncnn35)CCC4)CC2)cc1 (configuration not stated) here?
Its AC50 is 0.00316 µM [falling, full curve, poor fit].

With Clc1ccc(-n2nnnc2Sc2ncnc3sccc23)cc1 as the molecule, how does the AC50 read?
Its AC50 is 6.31 µM [falling, partial curve, poor fit].

For COc1ccc2c(c1)c1nnc(SCC(=O)N3C(C)CCCC3C)nc1n2C (configuration not stated), which AC50 is on record?
Its AC50 is 0.794 µM [rising, full curve].

With COc1cccc(Cn2c(=O)c(-c3ccc(Cl)cc3)nc3cnc(N4CCNCC4)nc32)c1 as the molecule, how does the AC50 read?
Its AC50 is 2.51 µM [rising, full curve].

With c1ccn2c(SCc3cn4ccsc4n3)nnc2c1 as the molecule, how does the AC50 read?
The AC50 was 0.126 µM [falling, full curve].

With COc1ccc2c(C)c(C(=O)NCC(C)O)oc2c1OC (configuration not stated) as the molecule, how does the AC50 read?
The AC50 was 6.31 µM [rising, partial curve].

With CC(=O)c1c(C)nc2cc(Cl)ccc2c1N as the molecule, how does the AC50 read?
The AC50 was 10 µM [rising, partial curve].

For COc1ccc(-n2nnnc2S(=O)(=O)CC(=O)N2CCCCC2)cc1, which AC50 is on record?
Its AC50 is 1.58 µM [falling, full curve].

For C=CCn1c(=O)c2ccccc2n2c(SCc3nc(N)nc(Nc4ccccc4C)n3)nnc12, which AC50 is on record?
Its AC50 is 12.6 µM [rising, partial curve].

Which AC50 does the source give for CCOC(=O)c1sc2nc(N3CCOCC3)c3c(c2c1N)CCC3 here?
The AC50 was 10 µM [rising, partial curve].

Which AC50 does the source give for COc1cc(C(C)=O)ccc1OCC(O)CNCC1(N2CCCCC2)CCCCC1 (configuration not stated) here?
Its AC50 is 5.01 µM [falling, single point].

With CC(=O)Nc1ccc(S(=O)(=O)NCCc2cc3c(C)ccc(C)c3[nH]c2=O)cc1 as the molecule, how does the AC50 read?
Its AC50 is 12.6 µM [rising, single point].

With COc1ccc(NC(=O)c2cc(-c3ccc(OC)c(OC)c3)on2)cc1OC as the molecule, how does the AC50 read?
Its AC50 is 0.0251 µM [falling, full curve, poor fit].

For COc1ccccc1N1CCN(C(=O)N2CCOCC2)CC1, which AC50 is on record?
The AC50 was 0.0631 µM [rising, full curve].

With Nc1cccc(-n2nncc2-c2ccc(Cl)cc2)c1 as the molecule, how does the AC50 read?
The AC50 was 25.1 µM [rising, single point].

Which AC50 does the source give for COc1cccc(C(=O)Nc2c3c(nn2-c2cccc(C)c2C)CS(=O)(=O)C3)c1OC here?
Its AC50 is 12.6 µM [rising, partial curve].
